Drawing on article PMC12199405, this text covers binding for one molecule.

Sequences of proteins named here, by UniProt entry; tags and fusion partners are left off.
UniProt P28033: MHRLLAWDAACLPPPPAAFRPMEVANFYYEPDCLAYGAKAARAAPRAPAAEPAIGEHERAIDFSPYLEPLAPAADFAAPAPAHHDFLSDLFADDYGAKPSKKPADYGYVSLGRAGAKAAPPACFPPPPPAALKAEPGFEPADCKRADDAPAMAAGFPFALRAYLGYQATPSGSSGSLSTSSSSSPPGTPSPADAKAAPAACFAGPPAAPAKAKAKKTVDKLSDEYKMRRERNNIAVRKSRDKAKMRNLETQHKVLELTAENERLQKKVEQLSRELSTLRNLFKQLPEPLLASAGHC

The test has as its target CCAAT/enhancer-binding protein beta (C/EBPβ) (mouse (endogenous in BV2)) (UniProt P28033). Briefly: co-IP; nuclear proteins of BV2 cells under control or oxygen-glucose deprivation (OGD, 3 h) conditions, immunoprecipitation with C/EBPβ antibody or control IgG, protein A/G magnetic beads, Western blotting; quantified as percentage of input. On the technique in general: In western blotting, separated proteins are transferred to a membrane and probed.

These are yes or no findings as the source states them, for the method shown. In cells and extracts the contact can be indirect. Some binding calls cover weakened binding; strength is not graded here.

B1: p21 (coded by Cdkn1a) (protein, UniProt P39689 1-159)
chain: MSNPGDVRPVPHRSKVCRCLFGPVDSEQLRRDCDALMAGCLQEARERWNFDFVTETPLEGNFVWERVRSLGLPKVYLSPGSRSRDDLGGDKRPSTSSALLQGPAPEDHVALSLSCTLVSERPEDSPGGPGTSQGRKRRQTSLTDFYHSKRRLVFCKRKP
Regarding B1, the binding entry is on record as “binds”.
